This test has as its target T1, Phospholipid Scramblase 1 (mouse (endogenous in BMMC)) (UniProt Q9JJ00).
T1 sequence: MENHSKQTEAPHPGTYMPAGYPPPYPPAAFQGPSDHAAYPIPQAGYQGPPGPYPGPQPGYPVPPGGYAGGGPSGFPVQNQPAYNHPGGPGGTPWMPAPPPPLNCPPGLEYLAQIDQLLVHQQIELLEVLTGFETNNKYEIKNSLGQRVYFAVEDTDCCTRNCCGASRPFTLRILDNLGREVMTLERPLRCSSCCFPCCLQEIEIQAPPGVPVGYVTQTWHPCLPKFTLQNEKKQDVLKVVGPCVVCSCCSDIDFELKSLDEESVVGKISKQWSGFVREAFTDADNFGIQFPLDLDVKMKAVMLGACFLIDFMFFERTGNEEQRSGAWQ
Nature of the test: co-IP; lysates (0.5% Triton X-100) of IgE-sensitized BMMC from wild-type and Fyn-deficient mice, stimulated or not with antigen for 10 min; PLSCR1 immunoprecipitated with mAb 1A8 on beads, 2 hr at 4°C; blot with anti-Lyn antibodies.

By UniProt entry, the sequences of proteins in these tests, tags left out.
UniProt P25911: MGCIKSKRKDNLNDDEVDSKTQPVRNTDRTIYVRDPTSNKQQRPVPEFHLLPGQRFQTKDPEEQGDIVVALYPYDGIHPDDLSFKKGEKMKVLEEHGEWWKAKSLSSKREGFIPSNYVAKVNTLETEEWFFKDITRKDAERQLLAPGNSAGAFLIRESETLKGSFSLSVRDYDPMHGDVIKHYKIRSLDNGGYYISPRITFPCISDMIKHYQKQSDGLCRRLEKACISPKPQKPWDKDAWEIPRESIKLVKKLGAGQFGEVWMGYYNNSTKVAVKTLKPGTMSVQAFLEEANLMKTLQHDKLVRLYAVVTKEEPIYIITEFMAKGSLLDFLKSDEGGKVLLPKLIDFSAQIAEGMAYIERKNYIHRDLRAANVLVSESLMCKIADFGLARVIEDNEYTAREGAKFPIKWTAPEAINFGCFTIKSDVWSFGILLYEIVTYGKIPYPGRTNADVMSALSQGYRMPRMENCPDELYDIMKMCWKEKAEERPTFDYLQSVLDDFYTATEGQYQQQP

Results are given in words; binding and its absence hold for the method and conditions named. In cells and extracts the contact can be indirect. Some results given as binding are weak or reduced against the parent protein; the word gives no strength.

With “Lyn tyrosine kinase (from UniProt P25911 1-512) (enzyme)”, the binding result is “binds”.
